No constants are given. Whether binding was seen depends on the method and setting. Binding seen in cells or lysates may run through a third protein. Some binding calls cover weakened binding; strength is not graded here. Tags and fused reporters may be left off the sequences shown.
Molecular target: T1, IQ67 DOMAIN 9 (IQD9) fused to GFP (Arabidopsis thaliana) (UniProt Q0WNP8)
T1 sequence: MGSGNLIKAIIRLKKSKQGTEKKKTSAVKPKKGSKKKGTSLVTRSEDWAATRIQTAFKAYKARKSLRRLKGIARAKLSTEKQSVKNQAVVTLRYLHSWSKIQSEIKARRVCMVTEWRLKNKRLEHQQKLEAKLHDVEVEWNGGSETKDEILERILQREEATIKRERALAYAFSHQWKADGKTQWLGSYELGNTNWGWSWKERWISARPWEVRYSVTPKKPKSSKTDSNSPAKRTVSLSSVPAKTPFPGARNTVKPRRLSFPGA
Test: co-IP

- binding: binds
B1: KINESIN LIGHT CHAIN-RELATED 1 (KLCR1) tagged with RFP (protein, UniProt O81629 1-609)
chain: MPAMPGLVSVKTPSDTPPLRVAVPDTQPLSNPPRTPMKKTPSSTPSRSKPSPNRSTGKKDSPTVSSSTAAVIDVDDPSLDNPDLGPFLLKLARDAIASGEGPNKALDYAIRATKSFERCCAAVAPPIPGGSDGGPVLDLAMSLHVLAAIYCSLGRFDEAVPPLERAIQVPDPTRGPDHSLAAFSGHMQLGDTLSMLGQIDRSIACYEEGLKIQIQTLGDTDPRVGETCRYLAEAYVQAMQFNKAEELCKKTLEIHRAHSEPASLEEAADRRLMAIICEAKGDYENALEHLVLASMAMIASGQESEVASIDVSIGNIYMSLCRFDEAVFSYQKALTVFKASKGETHPTVASVFVRLAELYHRTGKLRESKSYCENALRIYNKPVPGTTVEEIAGGLTEISAIYESVDEPEEALKLLQKSMKLLEDKPGQQSAIAGLEARMGVMYYTVGRYEDARNAFESAVTKLRAAGEKSAFFGVVLNQMGLACVQLFKIDEAGELFEEARGILEQERGPCDQDTLGVYSNLAATYDAMGRIEDAIEILEQVLKLREEKLGTANPDFEDEKKRLAELLKEAGRSRNYKAKSLQNLIDPNARPPKKESSAKKWPSLGFKF

Reference: publication doi:10.1101/2021.12.11.472226
